The values below come from paper PMC10384339.

Results are given in words; binding and its absence hold for the method and conditions named. Binding seen in cells or lysates may run through a third protein. Here binding means that the protein was enriched with, or labelled near, the bait; the list need not be complete. Where a sequence is shown, tags or fusion partners need not be part of it.

Assay [1] concerns the target T1, GST-MBD3 fusion protein (Arabidopsis thaliana) (UniProt Q4PSK1).
T1 sequence: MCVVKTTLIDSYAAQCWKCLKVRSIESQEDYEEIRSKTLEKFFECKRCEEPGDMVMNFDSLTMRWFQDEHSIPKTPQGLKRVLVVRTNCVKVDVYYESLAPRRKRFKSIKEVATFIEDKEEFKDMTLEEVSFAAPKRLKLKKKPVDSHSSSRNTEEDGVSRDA
As to the kind of experiment: affinity purification with mass spectrometry; purified GST-MBD3 added to lysate of 2.5 g WT seedlings (50 mM Tris-HCl pH 8.0, 230 mM NaCl, 5 mM MgCl2, 10% glycerin, 0.2% NP-40), 4 °C, captured on GST beads; bound proteins identified by mass spectrometry; only the target purified.

Assay [2] deals with T2, GFP-tagged PBL6 (Arabidopsis thaliana) (UniProt Q9SIB6).
T2 sequence: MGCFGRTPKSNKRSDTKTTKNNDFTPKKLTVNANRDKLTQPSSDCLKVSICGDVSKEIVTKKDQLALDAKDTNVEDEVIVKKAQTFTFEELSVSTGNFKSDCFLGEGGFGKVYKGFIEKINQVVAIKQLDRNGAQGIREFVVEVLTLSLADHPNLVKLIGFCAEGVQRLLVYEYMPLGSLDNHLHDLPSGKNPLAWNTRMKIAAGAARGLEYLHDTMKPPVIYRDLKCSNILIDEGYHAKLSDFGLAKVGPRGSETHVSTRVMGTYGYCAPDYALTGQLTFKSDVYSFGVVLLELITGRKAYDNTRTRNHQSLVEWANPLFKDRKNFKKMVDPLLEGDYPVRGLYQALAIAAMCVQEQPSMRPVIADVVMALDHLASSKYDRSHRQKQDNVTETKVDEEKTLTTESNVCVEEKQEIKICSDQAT
The assay is described as follows: affinity purification with mass spectrometry; IP-MS of GFP-tagged PBL6 transgenic plants; co-purified proteins identified by mass spectrometry.

B1: MBD6 (Methyl-CPG-binding domain 6) (protein, UniProt Q9LTJ1 1-225)
chain: MSDSVAGDFPPDPLLASGAFISSAGDGTLDSSAKRRPIQGGIGISGSGESVRIGMANGTDQVNHQTESKSRKRAAPGDNWLPPGWRVEDKIRTSGATAGSVDKYYYEPNTGRKFRSRTEVLYYLEHGTSKRGTKKAENTYFNPDHFEGQGSNRVTRTATVPPPPPPPLDFDFKNPPDKVSWSMANAGEEGWIPNIGDVKVQDSVRRDWSTAFTFITSRNPSKVSA
For B1, the binding result in assay [1] and in assay [2] was “binds” in each case.

B2: CCT2 (TCP-1/cpn60 chaperonin family protein), co-purified from plants (protein, UniProt Q940P8 1-527)
chain: MPIDKIFKDDASEEKGERARMASFVGAMAISDLVKSTLGPKGMDKILQSTGRGHAVTVTNDGATILKSLHIDNPAAKVLVDISKVQDDEVGDGTTSVVVLAGELLREAEKLVASKIHPMTIIAGYRMASECARNALLKRVIDNKDNAEKFRSDLLKIAMTTLCSKILSQDKEHFAEMAVDAVFRLKGSTNLEAIQIIKKPGGSLKDSFLDEGFILDKKIGIGQPKRIENANILVANTAMDTDKVKIYGARVRVDSMTKVAEIEGAEKEKMKDKVKKIIGHGINCFVNRQLIYNFPEELFADAGILAIEHADFEGIERLGLVTGGEIASTFDNPESVKLGHCKLIEEIMIGEDKLIHFSGCEMGQACSIVLRGASHHVLDEAERSLHDALCVLSQTVNDTRVLLGGGWPEMVMAKEVDELARKTAGKKSHAIEAFSRALVAIPTTIADNAGLDSAELVAQLRAEHHTEGCNAGIDVITGAVGDMEERGIYEAFKVKQAVLLSATEASEMILRVDEIITCAPRRREDRM
Regarding B2, in assay [2], the binding entry was “binds”.

B3: MBD5 (Methyl-CPG-binding domain 5) (protein, UniProt Q9SNC0 1-182)
chain: MSNGTDQAQPPPENPATPVDSKSRKRATPGDDNWLPPDWRTEIRVRTSGTKAGTVDKFYYEPITGRKFRSKNEVLYYLEHGTPKKKSVKTAENGDSHSEHSEGRGSARRQTKSNKKVTEPPPKPLNFDFLNVPEKVTWTGINGSEEAWLPFIGDYKIQESVSQDWDRVFTLVTSQNAGKTMF
For B3, the binding entry in assay [1] and in assay [2] was “binds” each time.

B4: MBD3 (Methyl-CPG-binding domain 3), co-purified from plants (protein, UniProt Q4PSK1 1-163)
chain: MCVVKTTLIDSYAAQCWKCLKVRSIESQEDYEEIRSKTLEKFFECKRCEEPGDMVMNFDSLTMRWFQDEHSIPKTPQGLKRVLVVRTNCVKVDVYYESLAPRRKRFKSIKEVATFIEDKEEFKDMTLEEVSFAAPKRLKLKKKPVDSHSSSRNTEEDGVSRDA
For B4, in assay [2], the binding entry is reported as “binds”.
